Consider 1 substance from article PMC6915726.

Amino acid sequences for entries named in this document (tags omitted).
UniProt O88895: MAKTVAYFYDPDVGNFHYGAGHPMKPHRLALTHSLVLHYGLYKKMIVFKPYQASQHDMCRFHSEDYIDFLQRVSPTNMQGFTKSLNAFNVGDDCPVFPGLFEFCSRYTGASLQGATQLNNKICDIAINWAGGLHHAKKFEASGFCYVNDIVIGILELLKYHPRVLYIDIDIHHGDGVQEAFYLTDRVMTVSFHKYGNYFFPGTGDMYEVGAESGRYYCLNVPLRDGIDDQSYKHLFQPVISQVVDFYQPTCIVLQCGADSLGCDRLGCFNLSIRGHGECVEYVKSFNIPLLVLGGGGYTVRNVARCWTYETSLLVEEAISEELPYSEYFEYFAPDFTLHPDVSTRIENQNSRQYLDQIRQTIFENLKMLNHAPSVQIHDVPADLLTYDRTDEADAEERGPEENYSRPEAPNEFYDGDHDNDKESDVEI
UniProt Q60974: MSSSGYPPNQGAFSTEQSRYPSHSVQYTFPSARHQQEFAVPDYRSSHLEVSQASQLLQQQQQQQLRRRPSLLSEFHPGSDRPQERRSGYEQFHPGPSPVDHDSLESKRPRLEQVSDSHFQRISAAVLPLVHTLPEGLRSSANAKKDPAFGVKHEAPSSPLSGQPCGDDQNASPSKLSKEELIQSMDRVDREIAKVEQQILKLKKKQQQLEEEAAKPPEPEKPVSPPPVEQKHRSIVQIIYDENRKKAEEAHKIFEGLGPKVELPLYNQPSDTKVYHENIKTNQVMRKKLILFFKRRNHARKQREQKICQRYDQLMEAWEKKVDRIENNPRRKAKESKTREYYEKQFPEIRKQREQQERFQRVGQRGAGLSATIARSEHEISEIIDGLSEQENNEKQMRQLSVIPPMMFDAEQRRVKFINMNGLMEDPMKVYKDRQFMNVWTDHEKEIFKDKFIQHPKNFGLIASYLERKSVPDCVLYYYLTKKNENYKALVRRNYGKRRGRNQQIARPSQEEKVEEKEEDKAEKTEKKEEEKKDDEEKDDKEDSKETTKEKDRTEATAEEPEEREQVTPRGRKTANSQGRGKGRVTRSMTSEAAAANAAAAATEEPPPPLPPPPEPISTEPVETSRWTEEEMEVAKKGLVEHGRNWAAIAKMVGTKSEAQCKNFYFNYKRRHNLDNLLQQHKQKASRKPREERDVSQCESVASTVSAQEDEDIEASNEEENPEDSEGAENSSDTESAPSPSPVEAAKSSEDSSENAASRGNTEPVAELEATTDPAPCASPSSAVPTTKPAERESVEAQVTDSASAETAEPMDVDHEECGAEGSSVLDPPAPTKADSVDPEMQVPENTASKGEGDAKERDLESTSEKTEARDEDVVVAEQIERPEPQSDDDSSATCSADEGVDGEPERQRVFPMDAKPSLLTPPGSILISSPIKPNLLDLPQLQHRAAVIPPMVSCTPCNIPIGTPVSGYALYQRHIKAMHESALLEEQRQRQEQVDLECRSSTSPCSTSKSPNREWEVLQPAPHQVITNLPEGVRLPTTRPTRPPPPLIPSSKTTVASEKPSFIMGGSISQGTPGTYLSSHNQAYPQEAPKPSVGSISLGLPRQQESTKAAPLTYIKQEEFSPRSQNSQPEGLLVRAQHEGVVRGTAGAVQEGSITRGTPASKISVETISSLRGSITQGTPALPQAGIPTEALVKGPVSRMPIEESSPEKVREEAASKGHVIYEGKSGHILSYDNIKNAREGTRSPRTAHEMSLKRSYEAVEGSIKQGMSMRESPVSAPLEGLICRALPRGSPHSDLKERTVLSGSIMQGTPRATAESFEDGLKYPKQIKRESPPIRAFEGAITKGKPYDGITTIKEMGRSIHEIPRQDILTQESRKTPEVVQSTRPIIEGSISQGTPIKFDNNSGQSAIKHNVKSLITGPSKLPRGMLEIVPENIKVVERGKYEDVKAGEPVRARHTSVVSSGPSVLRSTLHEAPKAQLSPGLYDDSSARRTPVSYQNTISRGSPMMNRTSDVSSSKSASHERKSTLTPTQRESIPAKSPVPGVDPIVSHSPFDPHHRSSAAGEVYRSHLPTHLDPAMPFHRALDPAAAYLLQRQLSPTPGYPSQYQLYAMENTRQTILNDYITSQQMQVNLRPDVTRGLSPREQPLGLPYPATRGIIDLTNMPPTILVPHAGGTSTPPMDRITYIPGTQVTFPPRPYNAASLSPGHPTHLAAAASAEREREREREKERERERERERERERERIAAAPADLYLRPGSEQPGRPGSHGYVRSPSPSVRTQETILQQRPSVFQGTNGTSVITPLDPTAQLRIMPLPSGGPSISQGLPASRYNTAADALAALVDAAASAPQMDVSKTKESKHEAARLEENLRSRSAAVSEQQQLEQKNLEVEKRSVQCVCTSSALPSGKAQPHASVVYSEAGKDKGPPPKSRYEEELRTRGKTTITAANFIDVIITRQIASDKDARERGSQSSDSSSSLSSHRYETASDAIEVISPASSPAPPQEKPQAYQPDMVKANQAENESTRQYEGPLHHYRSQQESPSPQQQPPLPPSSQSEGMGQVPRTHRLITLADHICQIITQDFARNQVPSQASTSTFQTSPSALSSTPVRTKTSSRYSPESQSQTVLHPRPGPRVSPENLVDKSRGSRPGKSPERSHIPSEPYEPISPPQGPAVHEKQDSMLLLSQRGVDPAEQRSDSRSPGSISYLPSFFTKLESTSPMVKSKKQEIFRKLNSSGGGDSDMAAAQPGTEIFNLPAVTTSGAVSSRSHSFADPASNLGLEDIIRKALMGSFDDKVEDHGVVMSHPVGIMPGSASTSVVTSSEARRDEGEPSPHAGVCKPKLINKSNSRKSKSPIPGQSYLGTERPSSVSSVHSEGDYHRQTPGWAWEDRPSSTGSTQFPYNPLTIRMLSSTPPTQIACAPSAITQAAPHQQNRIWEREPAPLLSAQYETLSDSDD

The target of this assay is histone deacetylase 3 (mouse (endogenous in granulosa cells)) (UniProt O88895). As to the kind of experiment: affinity purification with mass spectrometry; Co-IP of endogenous HDAC3 from total lysate of granulosa cells (mice, PMSG 46 h) with anti-HDAC3 antibody on Dynabeads Protein G, 1 h at room temperature; normal rabbit IgG as control; LC-MS of the eluate.

No constants are given. Whether binding was seen depends on the method and setting. In cells and extracts the contact can be indirect. These calls come from enrichment with a bait or labelling near it, and not all partners need be listed.

Turning to NCoR1 (from UniProt Q60974 1-2453), the binding result is recorded as “binds”.
